Assay results reported in publication PMC5706891.

Protein sequences, listed by entry. Tags and fused reporters are not part of them.
UniProt P09874: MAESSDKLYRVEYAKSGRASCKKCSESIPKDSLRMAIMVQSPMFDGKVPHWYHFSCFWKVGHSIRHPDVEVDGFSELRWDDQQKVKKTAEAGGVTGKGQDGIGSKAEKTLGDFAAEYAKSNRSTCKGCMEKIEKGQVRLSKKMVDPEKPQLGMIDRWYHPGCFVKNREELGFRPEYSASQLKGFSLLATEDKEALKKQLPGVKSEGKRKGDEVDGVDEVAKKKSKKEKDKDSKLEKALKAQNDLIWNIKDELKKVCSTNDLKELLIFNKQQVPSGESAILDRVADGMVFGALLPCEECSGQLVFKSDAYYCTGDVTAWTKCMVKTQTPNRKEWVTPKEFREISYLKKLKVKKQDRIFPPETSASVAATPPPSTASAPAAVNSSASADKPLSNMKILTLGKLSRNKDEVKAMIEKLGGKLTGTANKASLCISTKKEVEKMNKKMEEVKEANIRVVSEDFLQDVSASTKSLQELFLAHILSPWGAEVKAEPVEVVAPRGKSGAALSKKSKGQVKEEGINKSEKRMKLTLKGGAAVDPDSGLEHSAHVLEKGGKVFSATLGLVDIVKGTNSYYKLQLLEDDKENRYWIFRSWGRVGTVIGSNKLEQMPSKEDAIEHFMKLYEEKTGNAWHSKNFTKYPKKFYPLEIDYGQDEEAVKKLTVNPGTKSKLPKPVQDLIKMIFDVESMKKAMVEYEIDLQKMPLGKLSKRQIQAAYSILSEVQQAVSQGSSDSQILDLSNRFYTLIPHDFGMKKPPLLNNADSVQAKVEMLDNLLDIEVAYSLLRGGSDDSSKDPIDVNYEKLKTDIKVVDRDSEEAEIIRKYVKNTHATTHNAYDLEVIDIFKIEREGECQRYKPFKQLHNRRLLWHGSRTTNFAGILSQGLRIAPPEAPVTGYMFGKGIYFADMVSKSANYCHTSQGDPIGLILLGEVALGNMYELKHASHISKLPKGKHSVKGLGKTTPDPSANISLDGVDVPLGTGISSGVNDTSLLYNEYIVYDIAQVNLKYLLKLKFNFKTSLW

Target: T1, Flag-RNF144A (ring finger protein 144A) (human) (UniProt P50876)
T1 sequence: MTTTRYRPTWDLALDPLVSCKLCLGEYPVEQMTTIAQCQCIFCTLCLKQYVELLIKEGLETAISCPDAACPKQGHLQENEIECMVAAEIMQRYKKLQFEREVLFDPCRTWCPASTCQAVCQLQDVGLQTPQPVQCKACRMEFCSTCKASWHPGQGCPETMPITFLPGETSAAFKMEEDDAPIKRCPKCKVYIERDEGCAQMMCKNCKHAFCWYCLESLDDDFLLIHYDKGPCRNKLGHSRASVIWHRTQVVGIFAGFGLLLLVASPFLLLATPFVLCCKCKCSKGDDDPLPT
Assay: affinity purification with mass spectrometry; lysates of HEK293T cells stably expressing Flag-RNF144A or empty vector pCDH, IP with anti-Flag antibody conjugated agarose beads, SDS-PAGE, LC-MS/MS

binding: binds
Substance: Poly(ADP-ribose) polymerase 1 (PARP1), endogenous (from UniProt P09874 1-1014)

Results are given in words; binding and its absence hold for the method and conditions named. In cells and extracts the contact can be indirect. A yes stands for co-enrichment or nearness to the bait. Other partners may have been found. Sequences can lack the tags named with a protein.
